Data reported in publication PMC7819943, “Rice protein-binding microarrays: a tool to detect cis-acting elements near promoter regions in rice”.
The other results are listed elsewhere or left out.

target: T1, OsSMF1 (Oryza sativa, UniProt Q6ZLB0 1-436); experiment: protein-binding microarray (RPBM); PBS, 2% BSA, 51.3 ng/ul salmon testes DNA, 50 uM zinc acetate, 200 nM TF, 25 C, 1 h; high values mean tight binding; details: protein: recombinant; tags: N-terminal polyhistidine and DsRed monomer fusion (pET32a); chain copies: 2; label: CyDye5-dUTP incorporated in the synthesized complementary strand; 3' TTTTT single-stranded linker to array surface; dsDNA, one strand shown
T1 sequence: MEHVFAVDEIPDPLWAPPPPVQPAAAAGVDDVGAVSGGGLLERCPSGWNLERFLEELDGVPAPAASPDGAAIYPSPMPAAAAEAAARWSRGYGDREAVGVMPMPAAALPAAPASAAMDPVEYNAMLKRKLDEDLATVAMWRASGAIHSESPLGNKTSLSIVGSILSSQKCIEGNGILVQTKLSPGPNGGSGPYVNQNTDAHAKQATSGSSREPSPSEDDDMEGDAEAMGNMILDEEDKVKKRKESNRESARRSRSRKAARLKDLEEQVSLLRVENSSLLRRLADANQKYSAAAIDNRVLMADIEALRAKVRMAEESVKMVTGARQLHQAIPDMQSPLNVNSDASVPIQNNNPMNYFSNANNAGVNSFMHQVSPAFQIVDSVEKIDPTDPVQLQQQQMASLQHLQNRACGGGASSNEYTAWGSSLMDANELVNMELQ
Procedure, shortened: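 The binding signal is fluorescence intensity per array feature (arbitrary units). Readings came from an Axon 4000B scanner after a washed, 2% BSA-blocked, double-stranded custom Agilent array had been incubated for 1 h at 25 °C with 200 nM protein and 50 µM zinc acetate. The protein was a Ni–NTA-purified transcription factor fused N-terminally to polyhistidine and DsRed, expressed in E. coli BL21-CodonPlus.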

| Sequence | binding signal |
| --- | --- |
| TCTTCTCCCTAGTCCAAGTTGCAACCTTGGTAAACATAAGCGGAGTCACCTAGTGCAG | 3190 fluorescence intensity (a.u.) |
| GAAAACAAACAACTGGTGATGACTGATGACTCAGTTTCCGCGGAGTCACCTAGTGCAG | 6160 fluorescence intensity (a.u.) |
| CTTCCATCCGCCTGCTGCCGCTGGCACGTCGGGACGTAGGCGGAGTCACCTAGTGCAG | 3370 fluorescence intensity (a.u.) |
| ATAGACCCGCCCAAGTGAAGAGCAACAAGGTGACGTGGCACGGAGTCACCTAGTGCAG | 23600 fluorescence intensity (a.u.) |
| GCACTGGGATTTTATGCGTAATACATGTGGAAAATTTTCCCGGAGTCACCTAGTGCAG | 3710 fluorescence intensity (a.u.) |
| GTCGTTTGATGATAATGCCCACTCTATTACGTGGCCTGAACGGAGTCACCTAGTGCAG | 7830 fluorescence intensity (a.u.) |
| GTTCGTGCGTTTTCTTGGATGAGATTTGGGGTGACGTCCTCGGAGTCACCTAGTGCAG | 4700 fluorescence intensity (a.u.) |
| ACGGAGGTAGTATAAGATGTGTCACATCCGCACAATATCTCGGAGTCACCTAGTGCAG | 4880 fluorescence intensity (a.u.) |
| GTCAGCCCACATCAAACCGTTCGTCTCGGGAAGCCACCGCCGGAGTCACCTAGTGCAG | 20100 fluorescence intensity (a.u.) |
| TTTTCCAATTTTCCACCTGTGTCACCAATCAATGGAAGTACGGAGTCACCTAGTGCAG | 3900 fluorescence intensity (a.u.) |
| CCGGCGAAAGCGGACTCGCTGCCAAGGTGGCGCGCATGGCCGGAGTCACCTAGTGCAG | 3460 fluorescence intensity (a.u.) |
| CCATAAAACCTGTGATTATTTGCCACGCTTCATAATACATCGGAGTCACCTAGTGCAG | 3240 fluorescence intensity (a.u.) |
| GATGAGGCACGTGCTGACGTGTCTATGTATACAGTAAACTCGGAGTCACCTAGTGCAG | 18800 fluorescence intensity (a.u.) |
| CCCCGCGCGACCACGCTTCTCATCTAGTCATGGTCGCGTGCGGAGTCACCTAGTGCAG | 4580 fluorescence intensity (a.u.) |
| AGTTACCGCCACCCGCGCGGCAACGGCAGCGGCCGCGGCACGGAGTCACCTAGTGCAG | 3710 fluorescence intensity (a.u.) |
| TCTCTCCCTGTGAATTGTGGGTGTGTTTAGTTCGCGAAAACGGAGTCACCTAGTGCAG | 3280 fluorescence intensity (a.u.) |
| TCCTTTCGTTATCTGTACGGCAGTGACGTCCACGACTCGACGGAGTCACCTAGTGCAG | 4340 fluorescence intensity (a.u.) |
| CTCTCCTCCTTTCTTCTCCAAGTCAACAGTTCCTACGCTACGGAGTCACCTAGTGCAG | 3360 fluorescence intensity (a.u.) |
| GGGCCCCACAACCACCCCATAAATAAAGCAACACAACAACCGGAGTCACCTAGTGCAG | 53000 fluorescence intensity (a.u.) |
| CCTCGGTTGGGAGGAGGCGGCGGTGGTGGCGCGGAGGTCGCGGAGTCACCTAGTGCAG | 3570 fluorescence intensity (a.u.) |
| AGCCTTGCCCTCCCTGGATACTTCTCCAGCTCAGGTCACCCGGAGTCACCTAGTGCAG | 4910 fluorescence intensity (a.u.) |

| Sequence | binding signal |
| --- | --- |
| GGGCGGACGAGGCGGCGGCGGCGACGGGGCGGACGAGGCGCGGAGTCACCTAGTGCAG | 6010 fluorescence intensity (a.u.) |
| CTTCGCCTCTGGAATGAGTCATACCTGTGCCAGTACAAAACGGAGTCACCTAGTGCAG | 7720 fluorescence intensity (a.u.) |
| GCGTGTGGAATTCATAGCGAAGCCCAACGTGTCACTCCGTCGGAGTCACCTAGTGCAG | 5480 fluorescence intensity (a.u.) |
| TACAGGGAATCAAACGCACCTAATGCTTCCCTGCTCCACACGGAGTCACCTAGTGCAG | 22600 fluorescence intensity (a.u.) |
| GGTTTCTGTTATCGGTTTTCCAGTTTCAGTCCTATTGTAACGGAGTCACCTAGTGCAG | 26800 fluorescence intensity (a.u.) |
| AATAATGGGCTGAAAATATGTGACGCGAGGCGAGGGTCCCCGGAGTCACCTAGTGCAG | 3260 fluorescence intensity (a.u.) |
| ATGGTGGTGAGGATGACGTGTGGGTCCACATGGGCCCACCCGGAGTCACCTAGTGCAG | 10600 fluorescence intensity (a.u.) |
| GGCGGCGGCGACTACGCCGTCGCCGCGTGGGGCGGCGGTGCGGAGTCACCTAGTGCAG | 4000 fluorescence intensity (a.u.) |
| CCACTCCTTAGCCAAATGGCGTCGCTTCTCCTGTCCGCGTCGGAGTCACCTAGTGCAG | 18900 fluorescence intensity (a.u.) |
| GGAATTTTCTCACACGCAATTCAAATCCTTTCAAAATCTCCGGAGTCACCTAGTGCAG | 7160 fluorescence intensity (a.u.) |
| TATGTTCTCGGGCTTCACGTCGCAATGGATAACCCACTCTCGGAGTCACCTAGTGCAG | 5750 fluorescence intensity (a.u.) |
| CCGCTCGCGCCGCGTCTGCCGCCGCGCCTCCACCATCTCGCGGAGTCACCTAGTGCAG | 3330 fluorescence intensity (a.u.) |
| AGCGGAGCTATTATGTGTAGTTTTCTCCTTGCGTGGAACCCGGAGTCACCTAGTGCAG | 4150 fluorescence intensity (a.u.) |
| CCATCACCCTTCCATCCCGCCACGTTGCGATCCCCTCGGCCGGAGTCACCTAGTGCAG | 8340 fluorescence intensity (a.u.) |
| AGTGCCACTTAAGCGCCACATCAACGCCACATGGAAAGAACGGAGTCACCTAGTGCAG | 4210 fluorescence intensity (a.u.) |
| CATCTATCATATAACAACAACACAATGACACAACACTGGACGGAGTCACCTAGTGCAG | 4510 fluorescence intensity (a.u.) |
| ATTTAGTGACGGATCGATGACGTACTGTGTCTGGCTGCTTCGGAGTCACCTAGTGCAG | 9710 fluorescence intensity (a.u.) |
| ACCTTTCACGCCGCCGCACTACCTCTCCACCCTCTCGCGGCGGAGTCACCTAGTGCAG | 3160 fluorescence intensity (a.u.) |
| GTGGTCATTAGTGCCAGCAAGCATCCACATCATTAGAACACGGAGTCACCTAGTGCAG | 5760 fluorescence intensity (a.u.) |
| CATCCCCATGTGATATGGTGACAATGTTTTCAGTATTCTGCGGAGTCACCTAGTGCAG | 3840 fluorescence intensity (a.u.) |
| AAAGCTACCGAATCAAATGACTAAGATTTGTCGTGCAACCCGGAGTCACCTAGTGCAG | 3910 fluorescence intensity (a.u.) |

Some of the entries above, set out differently.
Sequence | binding signal
CTTCCATCCGCCTGCTGCCGCTGGCACGTCGGGACGTAGGCGGAGTCACCTAGTGCAG | 3370 fluorescence intensity (a.u.)
ATAGACCCGCCCAAGTGAAGAGCAACAAGGTGACGTGGCACGGAGTCACCTAGTGCAG | 23600 fluorescence intensity (a.u.)
GCACTGGGATTTTATGCGTAATACATGTGGAAAATTTTCCCGGAGTCACCTAGTGCAG | 3710 fluorescence intensity (a.u.)
GTCGTTTGATGATAATGCCCACTCTATTACGTGGCCTGAACGGAGTCACCTAGTGCAG | 7830 fluorescence intensity (a.u.)
GTTCGTGCGTTTTCTTGGATGAGATTTGGGGTGACGTCCTCGGAGTCACCTAGTGCAG | 4700 fluorescence intensity (a.u.)
ACGGAGGTAGTATAAGATGTGTCACATCCGCACAATATCTCGGAGTCACCTAGTGCAG | 4880 fluorescence intensity (a.u.)
GTCAGCCCACATCAAACCGTTCGTCTCGGGAAGCCACCGCCGGAGTCACCTAGTGCAG | 20100 fluorescence intensity (a.u.)
TTTTCCAATTTTCCACCTGTGTCACCAATCAATGGAAGTACGGAGTCACCTAGTGCAG | 3900 fluorescence intensity (a.u.)
CCGGCGAAAGCGGACTCGCTGCCAAGGTGGCGCGCATGGCCGGAGTCACCTAGTGCAG | 3460 fluorescence intensity (a.u.)
CCATAAAACCTGTGATTATTTGCCACGCTTCATAATACATCGGAGTCACCTAGTGCAG | 3240 fluorescence intensity (a.u.)
GATGAGGCACGTGCTGACGTGTCTATGTATACAGTAAACTCGGAGTCACCTAGTGCAG | 18800 fluorescence intensity (a.u.)
